# Primary screen of a compound library

Data taken from ChEMBL document CHEMBL3988442, “University of Dundee, Small-Polar-MMV Screening Library” (2021).

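Viability assay of Plasmodium falciparum sporozoites; the read-out is not stated. The concentration is filed as 10 mM, unlikely as a test dose, so the dose is not known. Direction is inferred from retests: higher values go with lower viability. Strong results were mostly tested again. Of about 34,000 compounds tested this way, about 280 (0.84%) reached 50% or more in at least one test.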

Results are given as percent effect. How 0% and 100% were set is not recorded. Most values in the screen are low, and negative values occur. The compounds are a random part of those screened. Two or more numbers in one place are separate tests of the same structure; such repeats can differ widely.

- O=C(O)C(F)(F)F.O=C(O)C(F)(F)F.[H][C@@]12CCN(Cc3ccncc3)C[C@]1(C(=O)N1CCOCC1)CCO2 : 1.386%
- Cl.O=C(O)[C@@H]1CCCN1c1nccc(Nc2ccccc2)n1 : 3.514%
- c1csc(-c2noc(CNCCn3cccn3)n2)c1 : 11.4%
- Cc1cnc(CN2CCCC(c3cc(C)[nH]n3)C2)cn1 (stereo not drawn) : -2.826%
- Cn1cc(CN2CCc3nc4sccc4c(=O)n3CC2)cn1 : 17.88%
- Cc1nc(C2CCCN2C(=O)CCCn2cccn2)no1 (stereo not drawn) : 1.807%
- Cc1cnn(C2CCCN(C(=O)Cc3ccc(C#N)cc3)C2)c1 (stereo not drawn) : 6.244%
- O=C(O)C(F)(F)F.[H][C@@]12CCN(CC(C)C)[C@@]1([H])CCN2S(=O)(=O)c1cccs1 : 1.882%
- O=C(CC1CCN(CCc2ccccc2)CC1)N1CCCOCC1 : -6.969%
- CN(CC1(C)COC1)C(=O)c1cc(-c2ccnn2C)nc2ccccc12 : 5.698%
- CCn1nc(C)c(CCNC(=O)C2CCCN(C(=O)N(C)C)C2)c1C (stereo not drawn) : 7.588%
- CNc1nc(CNC(=O)Nc2cccc(-n3ccc(C)n3)c2)cs1 : 1.698%
- O=C(NCc1cc(O)ncn1)C1CCOc2ccccc2C1 (stereo not drawn) : 4.678%
- CCOc1ccc(-n2nnc(C(=O)O)c2-c2ccncc2)cc1 : -3.495%
- CC(C)(C)c1noc(CCC(=O)N(CC2CCOC2)C2CC2)n1 (stereo not drawn) : -1.665%
- CN(C)C(=O)CN1CCc2ncnc(NC3CCC3)c2CC1.O=C(O)C(F)(F)F : -1.926%
- CC(=O)N1CCC2(CCCN(C(=O)c3ccccc3)C2)C1 (stereo not drawn) : -9.573%
- Cc1cncc(NC(=O)c2ccc(CN3CCC(CO)CC3)cc2)c1 : -18.92% and -30.5% and -0.8174%
- CCCn1ccnc1-c1cccc(NC(=O)C2CCCOC2)c1 (stereo not drawn) : -43.69%
- Cc1ncsc1C(=O)NC1CCN(Cc2cccnc2)CC1 : -6.868%
- Cc1ccc(C(=O)N2CCc3c(CNS(C)(=O)=O)cncc3C2)o1.Cl : -8.333%
- Cc1nccn1-c1nccnc1C1CCCN(C2CCCC2)C1 (stereo not drawn) : 7.315%
- Cc1cc(=O)n2nc(Oc3cccc(I)c3)sc2n1 : 11.82%
- CCCc1n[nH]c(C2CN(C(=O)Cn3ccccc3=O)CCO2)n1 (stereo not drawn) : 2.626%
- O=C(c1ccc2c(c1)OCCO2)N1CCCC(n2ccnc2)C1 (stereo not drawn) : 12.99%
- CO[C@H]1CN(C)S(=O)(=O)[C@@]12CCN(Cc1ccccc1)C2 : -31.61%
- Cc1cccc(NC(=O)N2CCCn3cnc(CN4CCCC4)c3C2)c1.O=C(O)C(F)(F)F : -7.892%
- c1ccc(-c2noc(CN3CCOC(Cn4cccn4)C3)n2)nc1 (stereo not drawn) : -6.43%
- O=C(O)C(F)(F)F.O=C(O)C(F)(F)F.[H][C@@]12COC[C@]1(C(=O)NC1CC(F)(F)C1)CN(Cc1cccnc1)C2 : 7.581%

2 of the entries, repeated:

- Cn1cc(CN2CCc3nc4sccc4c(=O)n3CC2)cn1 | 17.88%
- c1csc(-c2noc(CNCCn3cccn3)n2)c1 | 11.4%